Reference: PubChem BioAssay AID504444 (National Center for Advancing Translational Sciences (NCATS), 2011)
Where “and” joins values, the source holds several entries; their conditions need not be identical. Equal values may be shown once. Out of some 360,000 compounds screened, about 7,500 (2.1%) were called active. This list was built around the results that the source calls inconclusive (neither active nor inactive); the mix of calls is not that of the screen. Calls follow the shape of the dose curve; as a rule, active = well fitted inhibition curve with a large enough effect; inconclusive = small, poorly fitted or top-dose-only effect, or effect the other way; inactive = flat fitted curve, though single readings scatter. A potency beside an inconclusive call is a rough fit, not a confirmed value.

assay: Nrf2 qHTS screen for inhibitors; settings: A549 ARE-Fluc reporter, luciferase luminescence, 18-24 h; activity change, negative = inhibition: at 46 µM (top of the series); also: nearly all actives have a fitted effect of over 60% in size
How it was run: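 Reporter: ARE-Fluc in A549. Exposure: 18-24 h, 37 °C, 5% CO2, 5% FBS OPTI-MEM. Readouts: fluorescent cytotoxicity (CellTiter-Fluor), then luminescent Nrf2 signal after BugLite.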
% is scaled to controls: 0 for no effect and ±100 for the full control effect; potency is read from the fitted curve at half-maximal effect.

SMILES | Potency | activity change, negative = inhibition
CC(C)Oc1ccc(C(CC(=O)O)NC(=O)C(Sc2ccccc2)c2ccccc2)cc1 (configuration not stated) | inconclusive: 0.517 µM [falling, partial curve, poor fit] | 
N/C(=N\O)c1ccc([N+](=O)[O-])s1 |  | inactive: -20.7%
CCN(CC)S(=O)(=O)c1ccc(NC(=S)NC(=O)CC(C)C)cc1 | inconclusive: 23.1 µM [falling, single point] | 
Cc1cc(O)c(-c2cc(C(=O)Nc3ccc(S(=O)(=O)N4CCOCC4)cc3)[nH]n2)cc1C | inconclusive: 29.1 µM [falling, single point] | 
CCc1ccc(-c2cn3c(n2)SCC3)cc1 | inconclusive: 9.2 µM [activator, partial curve] | 
Cc1ccc(-c2nc(C(=O)NCC3CCCO3)cc3c2[nH]c2ccccc23)cc1 (configuration not stated) | inconclusive: 23.1 µM [falling, partial curve, poor fit] | 
O=c1c(-c2ccc3c(c2)OCCO3)c(C(F)(F)F)oc2cc(O)cc(O)c12 | inconclusive: 29.1 µM [falling, single point] | 
Cc1ccccc1C(=O)OCc1cc(=O)n2c(C)csc2n1 | inconclusive: 29.1 µM [activator, single point] | 
O=C(CCS(=O)(=O)c1ccc(Cl)cc1)N1CCN(c2ccccc2F)CC1 | inconclusive: 10.3 µM [falling, partial curve, poor fit] | 
O=C(Cn1c(=O)n(Cc2ccco2)c(=O)c2ccccc21)Nc1cccc(Cl)c1 | inconclusive: 29.1 µM [falling, single point] | 
CCOc1cc(S(=O)(=O)N2CCN(C(=O)c3ccco3)CC2)ccc1F |  | inactive: -16.5%
CCCNC(=O)c1cnc2sc(N3CCCCCC3)nn2c1=O |  | inactive: 22.1%
O=C(COc1ncnc2ccccc12)Nc1ccc(Cl)c(S(=O)(=O)N2CCOCC2)c1 |  | inactive: -3.99%
CCC(C)NC(=O)c1ccc(CS(=O)(=O)Cc2ccc(Cl)cc2)o1 (configuration not stated) | inconclusive: 4.61 µM [falling, partial curve, poor fit] | 
CCCCN1C=C(C(=O)OC)C(c2ccccc2C(F)(F)F)C(C(=O)OC)=C1 |  | inactive: 11.7%
C=CCN=c1scc(-c2ccccc2)n1/N=C/c1ccccn1 | inconclusive: 2.31 µM [activator, partial curve] and inconclusive: 820 nM [activator, full curve] | 
S=c1[nH]c2cnccc2n1Cc1ccccc1 | inconclusive: 29.1 µM [activator, single point] | 
Cc1ccc(OCC(=O)N/N=C\c2ccc(-c3cccc(C(=O)O)c3)o2)c(C)c1 |  | inactive: 2.15%
CC(C)Cn1c(N)c(C(=O)CCl)c(=O)n(C)c1=O |  | inactive: -13.8%
Cc1ccccc1CNC(=O)c1ccc(CSc2nc3cccnc3n2Cc2ccccc2)cc1 |  | inactive: -20.5%
Cc1cccc(-n2c(Cc3ccccc3)nnc2SCc2ccc([N+](=O)[O-])cc2)c1 | inconclusive: 3.66 µM [falling, partial curve, poor fit] | 
O=C(COc1ccc(C(=S)N2CCCC2)cc1)Nc1ccccc1C(F)(F)F | active: 23.1 µM | 
CCc1c(C)c2ccc(O)c(CN3CCN(c4ccc(OC)cc4)CC3)c2oc1=O | inconclusive: 0.58 µM [activator, full curve] | 

SMILES | Potency | activity change, negative = inhibition
CC(NC(=O)CCc1ccccc1)c1cc2c(cc1Cl)OCCO2 (configuration not stated) |  | inactive: -14.3%
C[C@@H]1C(=O)N(S(=O)(=O)c2ccc([N+](=O)[O-])cc2)[C@H]1c1ccc(F)cc1 |  | inactive: 7.08%
CC1CCC(Nc2nnnn2-c2ccccc2)CC1 (configuration not stated) | inconclusive: 7.31 µM [falling, partial curve] | 
Cc1cc(C)c(S(N)(=O)=O)c(C)c1N(C)S(=O)(=O)c1ccccc1 | inconclusive: 2.59 µM [activator, partial curve, poor fit] | 
Clc1ccc(CSc2cc3c(nn2)-c2ccccc2CC3)cc1 | inconclusive: 18.4 µM [activator, partial curve] | 
COc1ccc(OC)c(-c2csc(NC(=O)CN3C(=O)C4CCCCC4C3=O)n2)c1 (configuration not stated) | inconclusive: 32.6 µM [falling, single point] | 
Cc1ccc(-c2nc(CS(=O)(=O)CC(=O)NCc3ccc(Cl)cc3)c(C)o2)cc1 | inconclusive: 20.6 µM [activator, partial curve, poor fit] | 
CCCN(C(=O)COc1cc(=O)n(CC)c2ccccc12)c1ccc(C(C)C)cc1 | inconclusive: 11.6 µM [falling, partial curve, poor fit] | 
CN1C(=O)/C(=C/c2cccc(Cl)c2)Sc2ccc(C(=O)N3CCCC3)cc21 | inconclusive: 5.17 µM [falling, single point] | 
Cc1ccc(NC(=O)Cc2ccsc2)cc1Cl | inconclusive: 29.1 µM [falling, single point] | 
CCOC(=O)N1CCN(C(=O)c2ccc3oc(CCCc4ccccc4)nc3c2)CC1 | inconclusive: 2.91 µM [activator, partial curve, poor fit] | 
CCOC(=O)N1CCN(C(=O)c2cc3cc(Cl)ccc3[nH]2)CC1 |  | inactive: -27.8%
CCOc1ccccc1NC(=O)Cn1c(=O)n(-c2ccc(F)cc2)c(=O)c2c3c(sc21)CN(C(C)=O)CC3 |  | inactive: -1.1%
COc1ccc(C2Nc3ccccc3C(=O)N2Cc2ccccc2)cc1COc1ccc(C(N)=O)cc1 (configuration not stated) | inconclusive: 23.1 µM [falling, single point] | 
CCc1ccc(OC)c(S(=O)(=O)Nc2ccc(Cc3ccncc3)cc2)c1 | active: 18.4 µM | 
Cc1cc(C)c(C)c(OCC(=O)N2CCCCCC2)c1 |  | inactive: 5.86%
Cc1ccc(CCNC(=O)c2cc(C)nc3c2c(C)nn3-c2ccc(C)cc2)cc1 |  | inactive: -5.98%
CCN(CC)C(=O)C1CCC(C)(C(=O)O)C1(C)C (configuration not stated) | inconclusive: 18.4 µM [falling, partial curve, poor fit] | 
O=C(Cc1cn2ccsc2n1)Nc1nc2c(s1)CCCC2 | inconclusive: 23.1 µM [activator, partial curve] | 
COC(=O)c1ccc(COc2cccc(C)c2C)cc1 | inconclusive: 8.2 µM [activator, partial curve] | 
O=C(Nc1ccc(C(F)(F)F)cc1)C1CCN(c2cnccn2)CC1 | inconclusive: 16.4 µM [falling, partial curve] | 
Nc1nc(Nc2ccccc2F)nc(NCc2ccco2)c1[N+](=O)[O-] | inconclusive: 32.6 µM [activator, single point] | 
Cc1cc(C)cc(NC(=O)c2ccc(S(=O)(=O)NCc3cccnc3)cc2)c1 |  | inactive: -16.4%

SMILES | Potency | activity change, negative = inhibition
Nc1c(S(=O)(=O)c2ccccc2)c2nc3ccccc3nc2n1CCN1CCOCC1 |  | inactive: -12.9%
Cc1ccc(N/C(N)=N/c2nc(C)cc(N3CCCCC3)n2)c(C)c1 | active: 13 µM | 
COc1ccc(-c2cc(C(=O)Nc3c(C)n(C)n(-c4ccccc4)c3=O)c3ccccc3n2)c(OC)c1 | inconclusive: 10.3 µM [activator, partial curve, poor fit] | 
CCOC(=O)c1[nH]c2cc3c(cc2c1NC(=O)CN1CCCC1)OCO3 |  | inactive: 4.06%
COc1ccc(-c2csc(Nc3ccc(C)cn3)n2)cc1OC | inconclusive: 29.1 µM [falling, single point] | 
CCCc1cc(NCC2CCCO2)n2c(nc3ccccc32)c1C#N (configuration not stated) | inconclusive: 29.1 µM [falling, single point] | 
O=C(NCC1CCCO1)c1cc2c([nH]c3ccccc32)c(-c2cccc(Cl)c2)n1 (configuration not stated) | inconclusive: 16.4 µM [falling, partial curve, poor fit] | 
CCOc1cc(/C=C(\C#N)C(=O)Nc2ccc(C)cc2)ccc1OCc1cc(=O)n2nc(CC)sc2n1 |  | inactive: 13%
Cc1ccc(NC(=O)CN2CCCN(S(=O)(=O)c3ccc(Br)s3)CC2)cc1 | inconclusive: 29.1 µM [falling, single point] | 
COc1ccc(CN2CCN(C(=O)CCC(=O)Nc3nnc(C(F)(F)F)s3)CC2)cc1F | inconclusive: 18.4 µM [falling, partial curve] | 
COc1ccc(-c2csc(CCn3nc(C)cc3C)n2)cc1 | inconclusive: 29.1 µM [falling, single point] | 
COc1ccccc1NC(=O)CSc1nnc(Cc2cccn2C)n1CCc1ccccc1 | inconclusive: 7.31 µM [activator, partial curve] | 
CCN(CC)C(=O)c1cccc(NC(=O)c2cc(C3CC3)nc3c2cnn3C(C)C)c1 | inconclusive: 23.1 µM [falling, single point] | 
CN1CCN(/N=C/c2nc(-c3cccc([N+](=O)[O-])c3)n3ccccc23)CC1 |  | inactive: 7.06%
Cc1ccc(-c2nnc(Nc3ccc(OCC(N)=O)cc3)c3ccccc23)cc1S(=O)(=O)N(C)C | inconclusive: 29.1 µM [falling, single point] | 
C=C1CCC[C@]2(C)C[C@H]3OC(=O)C(CN4CCCCC4CO)[C@H]3CC12 (some centres not stated) | inconclusive: 20.6 µM [falling, single point] | 
Fc1ccccc1-c1nc2ccccc2[nH]1 | inconclusive: 10.3 µM [activator, partial curve] | 
O=C(c1cc(COc2ccc(F)cc2Cl)on1)N1C[C@H]2CC[C@H]1C2 | inconclusive: 29.1 µM [falling, single point] | 
O=[N+]([O-])c1cc(Br)c(Nc2ccccc2)c([N+](=O)[O-])c1 | inconclusive: 18.4 µM [activator, partial curve] | 
CCN(Cc1ccccc1)C(=O)c1cc(S(=O)(=O)N2CCOCC2)cn1C | inconclusive: 6.51 µM [falling, partial curve, poor fit] | 
CCOC(=O)N/N=C(C)/C=C/c1ccco1 | inconclusive: 16.4 µM [activator, partial curve] | 

Retrieved by compound from the list above, 3 records:
SMILES | Potency | activity change, negative = inhibition
Cc1ccc(CCNC(=O)c2cc(C)nc3c2c(C)nn3-c2ccc(C)cc2)cc1 |  | inactive: -5.98%
CCOC(=O)N1CCN(C(=O)c2ccc3oc(CCCc4ccccc4)nc3c2)CC1 | inconclusive: 2.91 µM [activator, partial curve, poor fit] | 
CCCCN1C=C(C(=O)OC)C(c2ccccc2C(F)(F)F)C(C(=O)OC)=C1 |  | inactive: 11.7%
